Reference: PMC6915026

System: amyloid-beta
Test: interdigitated electrode current change (aptamer-GNP immobilized)
Conditions: ethanolamine-blocked surface, no significant current change; Aptamer-GNP on APTES-modified IDE, blocked with 1 M ethanolamine (30 min, RT); PBS listed as reagent, binding buffer, pH and temperature not stated; single-stranded DNA

“ATAGTCCCATCATTCATTGTATGGTACGGCGCGGTGGCGGGTGCGTGGAGATATTAGCAAGTGTCA [antisynuclein aptamer]”: no binding.

Construct, isoform or probe ends are uncertain for at least one entry. A negative result means that nothing was seen under these conditions.
